# In publication PMC5732150:
# No constants are given. Whether binding was seen depends on the method and setting. Binding seen in cells or lysates may run through a third protein. Some binding calls cover weakened binding; strength is not graded here.
# T1: Myosin 1g (mouse (endogenous in splenic B lymphocytes)) (UniProt Q5SUA5)
# T1 sequence: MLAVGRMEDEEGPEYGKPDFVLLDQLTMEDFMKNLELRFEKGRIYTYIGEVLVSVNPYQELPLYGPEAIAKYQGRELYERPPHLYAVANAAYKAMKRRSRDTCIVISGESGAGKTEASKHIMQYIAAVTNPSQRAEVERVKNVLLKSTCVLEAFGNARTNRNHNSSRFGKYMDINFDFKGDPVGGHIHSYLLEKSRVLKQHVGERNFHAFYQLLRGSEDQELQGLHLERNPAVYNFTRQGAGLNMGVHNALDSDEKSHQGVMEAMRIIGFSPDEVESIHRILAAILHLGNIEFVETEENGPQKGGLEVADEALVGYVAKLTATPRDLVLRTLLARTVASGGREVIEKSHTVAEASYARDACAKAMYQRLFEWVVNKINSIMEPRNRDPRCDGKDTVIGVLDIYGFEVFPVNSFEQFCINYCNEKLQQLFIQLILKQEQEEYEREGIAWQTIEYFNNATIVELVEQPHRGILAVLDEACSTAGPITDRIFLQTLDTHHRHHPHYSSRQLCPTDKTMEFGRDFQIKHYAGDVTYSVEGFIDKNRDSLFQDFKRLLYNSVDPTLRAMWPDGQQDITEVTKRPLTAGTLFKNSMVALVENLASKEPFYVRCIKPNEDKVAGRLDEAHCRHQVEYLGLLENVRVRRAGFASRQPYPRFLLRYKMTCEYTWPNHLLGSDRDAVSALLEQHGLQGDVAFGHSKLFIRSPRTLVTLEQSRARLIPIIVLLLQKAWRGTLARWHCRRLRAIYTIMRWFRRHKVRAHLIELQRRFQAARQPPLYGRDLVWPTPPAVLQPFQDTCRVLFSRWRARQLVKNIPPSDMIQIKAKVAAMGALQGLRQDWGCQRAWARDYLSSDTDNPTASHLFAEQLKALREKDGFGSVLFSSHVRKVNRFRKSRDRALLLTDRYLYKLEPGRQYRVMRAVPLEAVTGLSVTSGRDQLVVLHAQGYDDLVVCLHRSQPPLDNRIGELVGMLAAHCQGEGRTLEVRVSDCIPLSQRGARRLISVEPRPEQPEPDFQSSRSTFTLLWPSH
# T2: CD44 (mouse (endogenous in splenic B lymphocytes)) (UniProt P15379)
# T2 sequence: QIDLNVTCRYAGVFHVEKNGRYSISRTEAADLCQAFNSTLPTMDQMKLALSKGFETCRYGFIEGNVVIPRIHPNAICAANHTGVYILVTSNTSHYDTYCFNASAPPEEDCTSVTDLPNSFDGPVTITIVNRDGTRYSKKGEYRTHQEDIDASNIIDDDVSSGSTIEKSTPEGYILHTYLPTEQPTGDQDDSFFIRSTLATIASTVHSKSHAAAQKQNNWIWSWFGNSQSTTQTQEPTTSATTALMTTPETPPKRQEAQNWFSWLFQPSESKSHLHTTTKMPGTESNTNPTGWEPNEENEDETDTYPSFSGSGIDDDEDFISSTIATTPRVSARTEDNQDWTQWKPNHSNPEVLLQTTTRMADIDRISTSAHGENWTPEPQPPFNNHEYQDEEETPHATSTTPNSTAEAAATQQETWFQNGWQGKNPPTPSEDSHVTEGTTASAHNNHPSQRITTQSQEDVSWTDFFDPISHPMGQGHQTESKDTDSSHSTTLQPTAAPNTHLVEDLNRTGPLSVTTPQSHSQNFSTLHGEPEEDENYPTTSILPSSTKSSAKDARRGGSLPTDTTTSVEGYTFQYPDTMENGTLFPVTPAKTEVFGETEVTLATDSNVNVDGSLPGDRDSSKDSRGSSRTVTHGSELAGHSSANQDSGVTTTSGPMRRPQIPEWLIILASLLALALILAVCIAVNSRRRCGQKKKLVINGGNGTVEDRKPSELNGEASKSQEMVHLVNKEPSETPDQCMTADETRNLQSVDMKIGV
# Columns and labels:
# [1] = target: T1, Myosin 1g (mouse (endogenous in splenic B lymphocytes)); assay: co-IP; Lysates (RIPA buffer, 1% Triton X-100) of resting, LPS plus IL-4 activated, HA-stimulated or CD44-capped mouse B lymphocytes; precipitated with α-Myo1g or NIM-R8 (α-CD44), 4 h at 4°C, protein G-agarose; Western blot; CD44 precipitates compared between WT and Myo1g-deficient cells
# [2] = target: T2, CD44 (mouse (endogenous in splenic B lymphocytes)); assay: as above
binding [1],binding [2],Binder
binds,–,"CD44 (receptor, UniProt P15379 23-778) QIDLNVTCRYAGVFHVEKNGRYSISRTEAADLCQAFNSTLPTMDQMKLALSKGFETCRYGFIEGNVVIPRIHPNAICAANHTGVYILVTSNTSHYDTYCFNASAPPEEDCTSVTDLPNSFDGPVTITIVNRDGTRYSKKGEYRTHQEDIDASNIIDDDVSSGSTIEKSTPEGYILHTYLPTEQPTGDQDDSFFIRSTLATIASTVHSKSHAAAQKQNNWIWSWFGNSQSTTQTQEPTTSATTALMTTPETPPKRQEAQNWFSWLFQPSESKSHLHTTTKMPGTESNTNPTGWEPNEENEDETDTYPSFSGSGIDDDEDFISSTIATTPRVSARTEDNQDWTQWKPNHSNPEVLLQTTTRMADIDRISTSAHGENWTPEPQPPFNNHEYQDEEETPHATSTTPNSTAEAAATQQETWFQNGWQGKNPPTPSEDSHVTEGTTASAHNNHPSQRITTQSQEDVSWTDFFDPISHPMGQGHQTESKDTDSSHSTTLQPTAAPNTHLVEDLNRTGPLSVTTPQSHSQNFSTLHGEPEEDENYPTTSILPSSTKSSAKDARRGGSLPTDTTTSVEGYTFQYPDTMENGTLFPVTPAKTEVFGETEVTLATDSNVNVDGSLPGDRDSSKDSRGSSRTVTHGSELAGHSSANQDSGVTTTSGPMRRPQIPEWLIILASLLALALILAVCIAVNSRRRCGQKKKLVINGGNGTVEDRKPSELNGEASKSQEMVHLVNKEPSETPDQCMTADETRNLQSVDMKIGV"
–,binds,"Myosin 1g (protein, UniProt Q5SUA5 1-1024) MLAVGRMEDEEGPEYGKPDFVLLDQLTMEDFMKNLELRFEKGRIYTYIGEVLVSVNPYQELPLYGPEAIAKYQGRELYERPPHLYAVANAAYKAMKRRSRDTCIVISGESGAGKTEASKHIMQYIAAVTNPSQRAEVERVKNVLLKSTCVLEAFGNARTNRNHNSSRFGKYMDINFDFKGDPVGGHIHSYLLEKSRVLKQHVGERNFHAFYQLLRGSEDQELQGLHLERNPAVYNFTRQGAGLNMGVHNALDSDEKSHQGVMEAMRIIGFSPDEVESIHRILAAILHLGNIEFVETEENGPQKGGLEVADEALVGYVAKLTATPRDLVLRTLLARTVASGGREVIEKSHTVAEASYARDACAKAMYQRLFEWVVNKINSIMEPRNRDPRCDGKDTVIGVLDIYGFEVFPVNSFEQFCINYCNEKLQQLFIQLILKQEQEEYEREGIAWQTIEYFNNATIVELVEQPHRGILAVLDEACSTAGPITDRIFLQTLDTHHRHHPHYSSRQLCPTDKTMEFGRDFQIKHYAGDVTYSVEGFIDKNRDSLFQDFKRLLYNSVDPTLRAMWPDGQQDITEVTKRPLTAGTLFKNSMVALVENLASKEPFYVRCIKPNEDKVAGRLDEAHCRHQVEYLGLLENVRVRRAGFASRQPYPRFLLRYKMTCEYTWPNHLLGSDRDAVSALLEQHGLQGDVAFGHSKLFIRSPRTLVTLEQSRARLIPIIVLLLQKAWRGTLARWHCRRLRAIYTIMRWFRRHKVRAHLIELQRRFQAARQPPLYGRDLVWPTPPAVLQPFQDTCRVLFSRWRARQLVKNIPPSDMIQIKAKVAAMGALQGLRQDWGCQRAWARDYLSSDTDNPTASHLFAEQLKALREKDGFGSVLFSSHVRKVNRFRKSRDRALLLTDRYLYKLEPGRQYRVMRAVPLEAVTGLSVTSGRDQLVVLHAQGYDDLVVCLHRSQPPLDNRIGELVGMLAAHCQGEGRTLEVRVSDCIPLSQRGARRLISVEPRPEQPEPDFQSSRSTFTLLWPSH"
